Construct, isoform or probe ends are uncertain for at least one entry. Weaker means in comparison with the reference protein, sequence or condition of that experiment. Tags and fusion partners may be left off the protein sequences shown.
Biological target: T1, CrtR (His-tagged) (Corynebacterium glutamicum ATCC 13032) (UniProt Q8NSP1)
T1 sequence (looked up): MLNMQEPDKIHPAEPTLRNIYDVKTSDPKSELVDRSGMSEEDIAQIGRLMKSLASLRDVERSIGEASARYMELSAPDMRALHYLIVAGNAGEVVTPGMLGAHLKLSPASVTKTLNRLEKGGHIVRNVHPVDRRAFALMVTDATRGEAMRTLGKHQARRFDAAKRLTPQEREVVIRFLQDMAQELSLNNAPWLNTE
Test: EMSA
Conditions: 30-fold molar excess CrtR, 50 mM Tris-HCl pH 7.5, 10% glycerol, 50 mM KCl, 10 mM MgCl2, 0.5 mM EDTA, 20 uL, 90 ng DNA, 30 min at room temperature, 6% DNA retardation gel, recombinant protein, residues 1-195, protein details: N-terminal decahistidine (pET16b), not removed, label: none (ethidium bromide stain), probe letters rebuilt from the primers and the genome

Measured: binding result

ATTCAGCATAGTAATCACCTTTTTCTACAAAGTCAGATAAAGTTTATTTTTAAAAATATTAACTCATGGGATACTATAAATTTCTTGTAGGCACATTATTTTTATGGACCCAAATTCACACTTTCTGTACTTCATCAAAATAAAGCGCCATATACAACGATTGGGAATTTTTGCGAGATAACTGGCCGTGTGATACTCGA (double strand) [fragment A (full crtE-crtR intergenic region)]
binds more weakly: 50 uM GGPP | DMAPP (5-fold higher concentration than GGPP) | FPP (5-fold higher concentration than GGPP) | GPP (5-fold higher concentration than GGPP) | IPP (5-fold higher concentration than GGPP)

— paper PMC5401885, “Isoprenoid Pyrophosphate-Dependent Transcriptional Regulation of Carotenogenesis in Corynebacterium glutamicum” (Frontiers in Microbiology, 2017)
